Source: US20020102568
For some assays here: Negatives hold for the conditions tested. For some assays here: Construct, isoform or probe ends are uncertain for at least one entry.

By UniProt entry, the sequences of proteins in these tests, tags left out. Residues count along the entry.
UniProt P02769, 25-607: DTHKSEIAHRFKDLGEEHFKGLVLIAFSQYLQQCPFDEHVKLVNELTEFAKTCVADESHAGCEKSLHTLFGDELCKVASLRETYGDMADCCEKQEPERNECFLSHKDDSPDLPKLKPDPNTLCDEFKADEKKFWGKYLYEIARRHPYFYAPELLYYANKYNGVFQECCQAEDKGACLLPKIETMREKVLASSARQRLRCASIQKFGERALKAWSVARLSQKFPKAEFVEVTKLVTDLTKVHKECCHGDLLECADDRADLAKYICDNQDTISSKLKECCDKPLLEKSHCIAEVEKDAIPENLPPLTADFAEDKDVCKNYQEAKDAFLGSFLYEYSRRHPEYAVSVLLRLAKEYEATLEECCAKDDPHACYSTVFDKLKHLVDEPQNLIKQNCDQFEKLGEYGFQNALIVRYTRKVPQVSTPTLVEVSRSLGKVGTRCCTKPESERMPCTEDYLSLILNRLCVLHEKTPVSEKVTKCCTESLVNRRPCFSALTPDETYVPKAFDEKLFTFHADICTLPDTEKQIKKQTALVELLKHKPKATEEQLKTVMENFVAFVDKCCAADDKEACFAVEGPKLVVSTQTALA
UniProt Q16539, 2-360: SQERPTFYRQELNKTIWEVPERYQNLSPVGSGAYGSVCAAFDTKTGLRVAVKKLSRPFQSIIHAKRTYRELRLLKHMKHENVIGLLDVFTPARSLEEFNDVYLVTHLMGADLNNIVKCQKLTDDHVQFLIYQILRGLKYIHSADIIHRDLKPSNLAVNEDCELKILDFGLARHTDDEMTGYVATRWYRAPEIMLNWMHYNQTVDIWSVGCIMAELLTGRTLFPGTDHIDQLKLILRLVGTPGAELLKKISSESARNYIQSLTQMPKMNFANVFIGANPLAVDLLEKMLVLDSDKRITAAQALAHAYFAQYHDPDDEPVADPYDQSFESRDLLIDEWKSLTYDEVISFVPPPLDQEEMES

What was measured:
[1] = molecular target: ERK2, phosphorylated (activated) (UniProt P28482); assay: enzyme reaction in vitro; conditions: purified recombinant protein; protein details: phosphorylated form; variant of ERK2 aptamer (RNA sensor component); dose not given here
JNK = assay: enzyme reaction in vitro; conditions: JNK did not activate the allozyme; variant of ERK2 aptamer (RNA sensor component); dose not given here
[2] = molecular target: bovine serum albumin (BSA) (Bos taurus) (UniProt P02769); assay: enzyme reaction in vitro; conditions: BSA in place of ERK2 gave no activation; variant of ERK2 aptamer (RNA sensor component)
p38 MAPK = p38 MAPK (UniProt Q16539); assay: enzyme reaction in vitro; conditions: P38 did not activate the allozyme; variant of ERK2 aptamer (RNA sensor component); dose not given here
[3] = molecular target: ERK2 (unactivated, unphosphorylated) (UniProt P28482); assay: binding assay; conditions: CITED; affinity of the parental RNA sensor component stated without experimental detail; sequence assigned from listing (Erk Modulated Sensor Component); purified recombinant protein

“GCGUGACCUGAUGAGUCACGCUAAGGAGGAUUUCCGAAAGCGGCUACGGUCCGCCAGUGUUACGAAACGUUCCC [ERK2-responsive hammerhead allozyme]” was tested, and the “functional effect of the aptamer” value [1] was “not active”, the “functional effect of the aptamer” value (JNK) was “not active” and the “functional effect of the aptamer” value [2] was “not active”. For the same sequence, the “functional effect of the aptamer” value (p38 MAPK) was “not active”.
In the case of “GGAUAAGGAGGAUUUCCGAAAGCGGCUACGGUCCGCCAUCC [ERK2 aptamer (RNA sensor component)]”, the Kd [3] is reported as 8 ng/mL.
